From patent US20030198640A1
These are yes or no findings as the source states them, for the method shown. For some assays here: In cells and extracts the contact can be indirect. Some binding calls cover weakened binding; strength is not graded here. Tags and fused reporters may be left off the sequences shown.

By UniProt entry, the sequences of proteins in these tests, tags left out. Where a name states a change or a piece, a line headed by the entry shows the natural chain unless it says otherwise. Residues count along the entry.
UniProt P48023: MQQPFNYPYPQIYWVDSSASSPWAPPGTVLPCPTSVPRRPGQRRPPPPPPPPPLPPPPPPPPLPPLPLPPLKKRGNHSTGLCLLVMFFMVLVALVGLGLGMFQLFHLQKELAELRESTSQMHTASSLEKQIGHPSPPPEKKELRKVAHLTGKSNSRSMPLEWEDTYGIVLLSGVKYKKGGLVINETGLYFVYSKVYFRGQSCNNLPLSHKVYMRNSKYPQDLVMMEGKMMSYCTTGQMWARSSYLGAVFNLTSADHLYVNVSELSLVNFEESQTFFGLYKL
UniProt P19438: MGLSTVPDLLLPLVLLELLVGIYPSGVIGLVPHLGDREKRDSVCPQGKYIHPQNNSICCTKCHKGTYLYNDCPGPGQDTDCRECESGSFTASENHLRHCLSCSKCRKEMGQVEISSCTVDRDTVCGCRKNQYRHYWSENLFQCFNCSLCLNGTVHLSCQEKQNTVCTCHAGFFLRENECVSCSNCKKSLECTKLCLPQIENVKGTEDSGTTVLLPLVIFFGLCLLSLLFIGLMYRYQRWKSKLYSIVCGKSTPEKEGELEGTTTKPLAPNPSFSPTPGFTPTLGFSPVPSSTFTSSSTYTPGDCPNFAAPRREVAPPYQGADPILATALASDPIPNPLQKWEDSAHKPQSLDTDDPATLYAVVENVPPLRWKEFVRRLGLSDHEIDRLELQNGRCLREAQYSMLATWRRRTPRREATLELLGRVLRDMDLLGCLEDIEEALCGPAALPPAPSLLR
Flag-TNFR-1, expressed in 293 cells: residues 30-455 of P19438
GST fusion of the cytoplasmic domain of TNFR-1: residues 233-455 of P19438

Assays:
[1] = molecular target: FasL (form not stated, BIAcore of Example 21) (Homo sapiens (Human)) (UniProt P48023); assay: BIAcore (not described further)
[2] = molecular target: T1, Flag-epitope tagged DR3 (Flag-DR3), expressed in 293 cells (human) (UniProt Q93038); assay: anti-Flag co-immunoprecipitation from transfected 293 cells, anti-myc blot
T1 sequence: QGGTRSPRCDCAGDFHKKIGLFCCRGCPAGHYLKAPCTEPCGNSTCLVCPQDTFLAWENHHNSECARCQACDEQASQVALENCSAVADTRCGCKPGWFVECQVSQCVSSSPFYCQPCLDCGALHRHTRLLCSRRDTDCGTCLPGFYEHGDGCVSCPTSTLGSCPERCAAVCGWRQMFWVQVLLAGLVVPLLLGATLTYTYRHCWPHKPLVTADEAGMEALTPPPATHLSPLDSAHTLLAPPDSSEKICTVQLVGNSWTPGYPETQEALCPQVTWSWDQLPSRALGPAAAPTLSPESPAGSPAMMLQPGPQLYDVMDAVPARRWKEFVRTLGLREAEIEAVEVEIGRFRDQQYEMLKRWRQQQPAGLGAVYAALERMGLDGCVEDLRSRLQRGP

[3] = molecular target: Flag-TNFR-1, expressed in 293 cells (UniProt P19438); assay: as above
[4] = molecular target: GST fusion of the cytoplasmic domain of TNFR-1 (UniProt P19438); assay: GST pull-down of in vitro translated 35S-labelled protein

| Binder | binding [1] | binding [2] | binding [3] | binding [4] |
| --- | --- | --- | --- | --- |
| TR6-Fc (full-length human TNFR-6 alpha, SEQ ID NO:6 aa 1-300, fused to the Fc domain of human IgG1) (Fc fusion, not shown: a dimerising Fc or GST) VAETPTYPWRDAETGERLVCAQCPPGTFVQRPCRRDSPTTCGPCPPRHYTQFWNYLERCRYCNVLCGEREEEARACHATHNRACRCRTGFFAHAGFCLEHASCPPGAGVIAPGTPSQNTQCQPCPPGTFSASSSSSEQCQPHRNCTALGLALNVPGSSSHDTLCTSCTGFPLSTRVPGAEECERAVIDFVAFQDISIKRLQRLLQALEAPEGWGPTPRAGRAALQLKLRRRLTELLGAQDGALLVRLLQALRVARMPGLERSVRERFLPVH | binds | – | – | – |
| full-length human TR6 (without Fc), baculovirus/Sf9 (receptor) VAETPTYPWRDAETGERLVCAQCPPGTFVQRPCRRDSPTTCGPCPPRHYTQFWNYLERCRYCNVLCGEREEEARACHATHNRACRCRTGFFAHAGFCLEHASCPPGAGVIAPGTPSQNTQCQPCPPGTFSASSSSSEQCQPHRNCTALGLALNVPGSSSHDTLCTSCTGFPLSTRVPGAEECERAVIDFVAFQDISIKRLQRLLQALEAPEGWGPTPRAGRAALQLKLRRRLTELLGAQDGALLVRLLQALRVARMPGLERSVRERFLPVH | binds | – | – | – |
| TRADD (myc-TRADD) (protein, UniProt Q15628 1-312, looked up, not shown: small tags and cut ends) MAAGQNGHEEWVGSAYLFVESSLDKVVLSDAYAHPQQKVAVYRALQAALAESGGSPDVLQMLKIHRSDPQLIVQLRFCGRQPCGRFLRAYREGALRAALQRSLAAALAQHSVPLQLELRAGAERLDALLADEERCLSCILAQQPDRLRDEELAELEDALRNLKCGSGARGGDGEVASAPLQPPVPSLSEVKPPPPPPPAQTFLFQGQPVVNRPLSLKDQQTFARSVGLKWRKVGRSLQRGCRALRDPALDSLAYEYEREGLYEQAFQLLRRFVQAEGRRATLQRLVEALEENELTSLAEDLLGLTDPNGGLA | – | binds | binds | binds |
